This note sets out measurements from PubChem BioAssay AID330 (DTP/NCI, 2004).

This assay deals with P388 leukemia ip, CD2F1 mice, survival T/C. Description: NCI In Vivo Anticancer Drug Screen. Data for tumor model P388 Leukemia (intraperitoneal) in CD2F1 (CDF1) mice. The following applies: T/C endpoint: median survival time, higher T/C = longer survival.
The mark [1] stands for this setting: dose: 400.0 mg/kg/injection, schedule: Q01DX001 (ip), vehicle: Klucel (hydroxypropylcellulose) (HPC).
[2] abbreviates: dose: 50.0 mg/kg/injection, schedule: Q01DX005 (ip), vehicle: Klucel (hydroxypropylcellulose) (HPC).
Setting [3] is: dose: 200.0 mg/kg/injection, schedule: Q01DX009 (ip), vehicle: saline.
The mark [4] stands for this setting: dose: 200.0 mg/kg/injection, schedule: Q01DX005 (ip), vehicle: saline with Tween-80.

The list is a part of this screen's results and no random one: it gathers tests that were run many times, whatever their T/C, doses with no T/C, and many T/C values between a quarter and a half above the control. Other doses and runs of a compound stand elsewhere. T/C: endpoint of the treated group in % of that of the vehicle group. Some entries give survivors of the animals treated and no T/C: the source holds a T/C of zero for them, seemingly a mark for toxic or unscored doses. Some doses without a T/C left all or most animals alive at the check, yet need not have been tolerated: survival well below the control is almost never listed, so the zero probably covers shortened survival too. Survivors were counted at the toxicity check, usually on the fifth day, unless a day is given; later deaths do not show. Schedules are NCI's codes, taken here to give the interval after Q, in days (D) or hours (H), and the number of doses after X. Where survival is the endpoint, this PubChem deposit counts one and a half times the control or more as active, and values a quarter to a half above the control carry no call in these data; other NCI protocols may use other cut-offs. Some entries were tested several times; their values stand side by side, smallest first. Signs of the kind (2×) count equal records among those shown.

For the compound `COc1ccc(-c2c(N)cnc(C)c2C)c(OC)c1OC`, under “dose: 200.0 mg/kg/injection, schedule: Q01DX009 (ip), vehicle: other”, the survivor count is 1 of 6.
For `Cc1cc2cc(CN)ccc2n1C`, the survivor count is given as 0 of 6 (dose: 200.0 mg/kg/injection, schedule: Q01DX001 (ip), vehicle: Klucel (hydroxypropylcellulose) (HPC)) and 0 of 6 under setting [1].
As for `CC(=NCCCCN=C(C)c1cc(C)cc(Br)c1O)c1cc(C)cc(Br)c1O`, the survivor count under setting [2] is listed as 6 of 6.
With `CCCCNc1ccc2nnc(C)n2n1`, the survivor count is reported as 0 of 6 (dose: 400.0 mg/kg/injection, schedule: Q01DX005 (ip), vehicle: DMSO) and 0 of 6 (dose: 800.0 mg/kg/injection, schedule: Q01DX005 (ip), vehicle: DMSO).
As for `C=C(C)C(=O)OC1C/C(CO)=C\C(OC(C)=O)C/C(C)=C/C2OC(=O)C(=C)C21` (configuration not stated), the T/C (dose: 30.0 mg/kg/injection, schedule: Q01DX009 (ip), vehicle: saline + alcohol) was 130 % of control.
For the compound `Cc1cc2c(cc1C)Nc1oc3ccc4ccccc4c3c(=O)c1C=N2`, the survivor count is given as 6 of 6 under setting [2] and 6 of 6 (dose: 100.0 mg/kg/injection, schedule: Q01DX005 (ip), vehicle: Klucel (hydroxypropylcellulose) (HPC)).
With `CNC(=O)Oc1c(C)[nH]ccc1=O`, the T/C reads like this: (dose: 25.0 mg/kg/injection, schedule: Q01DX009 (ip), vehicle: saline) 100 (2×), 101, 107 % of control; (dose: 50.0 mg/kg/injection, schedule: Q01DX009 (ip), vehicle: saline) 105, 107, 114, 133 % of control; (dose: 100.0 mg/kg/injection, schedule: Q01DX009 (ip), vehicle: saline) 99, 101, 102, 114 % of control; under setting [3], 105 (2×), 107, 108 % of control. The survivor count (dose: 400.0 mg/kg/injection, schedule: Q01DX009 (ip), vehicle: saline) is 3 of 5.
Take `COc1cc(C2(C3CC(=O)OC3COC(c3ccccc3)(c3ccccc3)c3ccccc3)SCCCS2)cc(OC)c1OC` (configuration not stated): the survivor count by setting is: (dose: 200.0 mg/kg/injection, schedule: Q04DX002 (ip), vehicle: saline with Tween-80) 6 of 6; (dose: 400.0 mg/kg/injection, schedule: Q04DX002 (ip), vehicle: saline with Tween-80) 6 of 6.
For `CCN(CC)CCCNC(=O)Cc1ccc2c(c1)C(=O)c1ccccc1C2=O`, the survivor count is, setting by setting: (dose: 100.0 mg/kg/injection, schedule: Q01DX005 (ip), vehicle: water) 0 of 6; (dose: 200.0 mg/kg/injection, schedule: Q04DX002 (ip), vehicle: water) 0 of 6; (dose: 400.0 mg/kg/injection, schedule: Q04DX002 (ip), vehicle: water) 0 of 6.
Take `CN(C)CC/C=C1/c2ccccc2C=Nc2ccc(Cl)cc21`: the survivor count by setting is: (dose: 50.0 mg/kg/injection, schedule: Q01DX009 (ip), vehicle: Klucel (hydroxypropylcellulose) (HPC)) 0 of 6; (dose: 100.0 mg/kg/injection, schedule: Q01DX009 (ip), vehicle: Klucel (hydroxypropylcellulose) (HPC)) 0 of 6; (dose: 200.0 mg/kg/injection, schedule: Q01DX009 (ip), vehicle: Klucel (hydroxypropylcellulose) (HPC)) 0 of 6.
Take `C1=C(c2ccccc2)C(=Nc2ccccc2)SC1=Nc1ccccc1`: the T/C (dose: 3.75 mg/kg/injection, schedule: Q01DX005 (ip), vehicle: saline with Tween-80) was 140 % of control and the T/C (dose: 7.5 mg/kg/injection, schedule: Q01DX005 (ip), vehicle: saline with Tween-80) was 130 % of control. Further, the survivor count is, setting by setting: (dose: 15.0 mg/kg/injection, schedule: Q01DX005 (ip), vehicle: saline with Tween-80) 4 of 6; (dose: 30.0 mg/kg/injection, schedule: Q01DX005 (ip), vehicle: saline with Tween-80) 0 of 6; (dose: 60.0 mg/kg/injection, schedule: Q01DX005 (ip), vehicle: saline with Tween-80) 0 of 6; (dose: 120.0 mg/kg/injection, schedule: Q01DX005 (ip), vehicle: saline with Tween-80) 0 of 6; (dose: 240.0 mg/kg/injection, schedule: Q01DX005 (ip), vehicle: saline with Tween-80) 0 of 6.
`CCCN(C)CC(C)(O)CNc1cc(OC)cc2cccnc12` (configuration not stated): the survivor count reads like this: (dose: 100.0 mg/kg/injection, schedule: Q01DX005 (ip), vehicle: saline with Tween-80) 0 of 5; under setting [4], 0 of 5.
As to `COc1ccccc1/C=C(\C(=O)O)c1ccccc1`, under “dose: 200.0 mg/kg/injection, schedule: Q01DX005 (ip), vehicle: Klucel (hydroxypropylcellulose) (HPC)”, the survivor count is recorded as 6 of 6.
As to `NC(Cc1cc(I)c(Oc2cc(I)c(O)c(I)c2)c(I)c1)C(=O)O` (configuration not stated), the survivor count by setting is: (dose: 4.0 mg/kg/injection, schedule: Q01DX009 (ip), vehicle: saline) 6 of 6; (dose: 8.0 mg/kg/injection, schedule: Q01DX009 (ip), vehicle: saline) 6 of 6; (dose: 16.0 mg/kg/injection, schedule: Q01DX009 (ip), vehicle: saline) 6 of 6; (dose: 32.0 mg/kg/injection, schedule: Q01DX009 (ip), vehicle: saline) 6 of 6; (dose: 64.0 mg/kg/injection, schedule: Q01DX009 (ip), vehicle: saline) 6 of 6; (dose: 128.0 mg/kg/injection, schedule: Q01DX009 (ip), vehicle: saline) 6 of 6.
Turning to `CNC(=O)OCC1=C([Si](C)(C)C)C(=O)C(OC)=C(OC)C1=O`, the survivor count under setting [4] was 1 of 6.
With `N=C(N)SCc1cccc(-c2nc3ccccc3c(=O)o2)c1`, the survivor count under setting [3] was 2 of 6.
In the case of `Cc1ccc(NC(=O)Oc2cc(C)c(Cl)c(C)c2Cl)c([N+](=O)[O-])c1`, under “dose: 200.0 mg/kg/injection, schedule: Q01DX009 (ip), vehicle: saline with Tween-80”, the survivor count is 5 of 6.
For `CC(O)CNCCNc1ccc(NCCNCC(C)O)c2c1C(=O)c1c(O)ccc(O)c1C2=O` (configuration not stated), the survivor count (dose: 16.0 mg/kg/injection, schedule: Q01DX009 (ip), vehicle: acid diluted with saline) is 6 of 6.
For the compound `Nc1c(/C=C/c2ccccc2)[nH]c(=O)[nH]c1=O`, the survivor count by setting is: (dose: 200.0 mg/kg/injection, schedule: Q04DX002 (ip), vehicle: saline) 5 of 6; (dose: 400.0 mg/kg/injection, schedule: Q04DX002 (ip), vehicle: saline) 6 of 6.
As to `Cc1ccc(-[n+]2c3cc(N)c(C)cc3nc3cc(C)c(Nc4ccccc4)cc32)cc1`, the survivor count is given as 2 of 6 (dose: 100.0 mg/kg/injection, schedule: Q01DX005 (ip), vehicle: saline + Tween-80 + alcohol); 0 of 6 (dose: 200.0 mg/kg/injection, schedule: Q01DX005 (ip), vehicle: saline + Tween-80 + alcohol); 0 of 5 under setting [4].
Take `COc1ccc2nc3cc(Cl)ccc3c(NC(C)CCCN(CCCl)CCCl)c2c1` (configuration not stated): the survivor count by setting is: (dose: 5.0 mg/kg/injection, schedule: Q04DX003 (ip), vehicle: saline) 2 of 6; (dose: 10.0 mg/kg/injection, schedule: Q04DX003 (ip), vehicle: saline) 1 of 6; (dose: 20.0 mg/kg/injection, schedule: Q04DX003 (ip), vehicle: saline) 0 of 6.
For `O=Cc1cc(C=O)c2ccc(=O)[nH]c2n1`, the survivor count (dose: 240.0 mg/kg/injection, schedule: Q01DX005 (ip), vehicle: Klucel (hydroxypropylcellulose) (HPC)) is given as 4 of 6.
With `CC(C)(OCc1ccccc1)c1ccccc1[P+](C)(c1ccccc1)c1ccccc1`, under setting [1], the survivor count is reported as 0 of 6.
